Non-standard residues stand in square brackets, D forms with d. *: point of attachment. DOTA = O=C(O)CN1CCN(CC(=O)O)CCN(CC(=O)*)CCN(CC(=O)O)CC1; Dap = NC[C@H](N)C(=O)O

This data set can be described thus: general procedure: Fmoc solid-phase peptide synthesis; NH2-MBHA resin; HBTU/HOBt/DIPEA. The settings on record: whole synthesis.

Take {DOTA}-G[Dap]EH[dF]RWD-NH2: the isolated yield entry is reported as “yield: 10%”.
The same measure for “DOTA-Gly-cyclic(Dap-Gln-His-dPhe-Arg-Trp-Asp)-Lys-Pro-Val-CONH2”: “Yield: 10%”; for “DOTA-Gly-cyclic(Dap-Glu-His-dPhe-Arg-Trp-Asp)-CONH2”: “yield: 10%”; for “DOTA-Gly-Cyclic(Dap-Glu-His-dPhe-Arg-Trp-Asp)-Arg-Pro-Val-CONH2”: “Yield: 10%”.
The same measure for “DOTA-Gly-Dap-Glu-His-dPhe-Arg-Trp-Asp-Lys-Pro-Val-CONH2”: “yield: 10%”; for {DOTA}-G[Dap]QH[dF]RWD-NH2: “Yield: 10%”; for {DOTA}-G[Dap]EH[dF]RWDRPV-NH2: “yield: 10%”.
The same measure for “DOTA-Gly-cyclic(Dap-Glu-His-dPhe-Arg-Trp-Asp)-Lys-Pro-Val-CONH2”: “yield: 10%”; for “DOTA-Gly-cyclic(Dap-Gln-His-dPhe-Arg-Trp-Asp)-CONH2”: “Yield: 10%”; for {DOTA}-G[Dap]QH[dF]RWDKPV-NH2: “Yield: 10%”.
“DOTA-Gly-cyclic(Dap-Gln-His-dPhe-Arg-Trp-Asp)-Arg-Pro-Val-CONH2”: the isolated yield result was “Yield: 10%”.

The values above are taken from patent US8124054B2 (Korea Atomic Energy Research Institute, priority 2008, dated 2012).
